Experimental data published in US9452997B2, “Piperidine and piperazine derivatives as autotaxin inhibitors” (Merck Patent GmbH, priority 2009, dated 2016).

Molecular target: Recombinant autotaxin (Homo sapiens, UniProt Q13822)
Assay: Autotaxin assay (Amplex Red, LPC substrate)
Conditions: read-out: IC50 value, Amplex Red detection, values given as upper bounds
Protocol: Autotaxin activity is measured indirectly by means of Amplex Red Reagent. In this course, Amplex Red is measured as fluorogenic indicator for generated H2O2. Autotaxin converts substrate lysophosphatidylcholine (LPC) to phosphocholine and lysophosphatidylic acid (LPA). After the conversion phosphocholine is reacted with alkaline phosphatase to obtain inorganic phosphate and choline. During the next step choline is oxidized with choline oxidase to yield betaine, whereby H2O2 is generated. H2O2 reacts with Amplex Red Reagent in the presence of peroxidase (Horseradish peroxidase) in an 1:1 stochiometry and yields highly fluorescent resorufin. The generated fluorescence is measured in a reaction-dependent kinetic mode in order to enable subtraction of fluorescence signals of possible other fluorescent compounds that are not part of the reaction from total measured fluorescence. […]
Thereafter, the reaction is started through the addition of 5 μL-a-lysophosphatidyl-choline (LPC), whereby the final concentration of LPC is 75 μM. […] The fluorescence is immediately measured at a wavelength of 612 nm with an excitation wavelength of 485 nm in a “Tecan Ultra multimode” fluorescence reader. The activity of autotaxin is indirectly calculated via the amount of detected generated H2O2. […]
IC50 values were calculated on normalized data. […]

IC50: < 10 µM
Compound: O=C(NC1CCN(C2CCN(C(=O)CCc3ccc(C(F)(F)F)cc3)CC2)C1)c1ccc2[nH]nnc2c1 (stereo not shown)

Structures were worked out from names or drawings and are uncertain.
